Laboratory results: patent US20150166671A1 (CHILDREN S MEDICAL CENTER, published 2015)
These are yes or no findings as the source states them, for the method shown. Binding seen in cells or lysates may run through a third protein. Some entries that bind do so weakly or less than the wild type. Tags and fused reporters may be left off the sequences shown.

Chains of the proteins cited; added tags and fusions are not shown. Residues count along the entry.
UniProt P27467, residues 19-352: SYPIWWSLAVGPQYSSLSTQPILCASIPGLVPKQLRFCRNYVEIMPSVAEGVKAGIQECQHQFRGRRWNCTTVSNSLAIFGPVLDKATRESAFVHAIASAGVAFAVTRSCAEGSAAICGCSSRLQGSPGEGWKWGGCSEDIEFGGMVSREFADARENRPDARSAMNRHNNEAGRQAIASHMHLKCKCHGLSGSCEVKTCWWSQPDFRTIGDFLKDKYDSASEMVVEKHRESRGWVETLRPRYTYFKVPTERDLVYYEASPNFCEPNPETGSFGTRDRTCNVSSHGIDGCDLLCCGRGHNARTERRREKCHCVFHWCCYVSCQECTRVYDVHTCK

Columns and labels:
Assay in all cases: co-immunoprecipitation from CM with an anti-FLAG antibody, Western blotting
mouse Wnt3a (mouse) = mouse Wnt3a (mouse) (UniProt P27467)
Xwnt11 (Xenopus) = target: T1, Xwnt11 (Xenopus) (UniProt P49893)
T1 sequence (looked up): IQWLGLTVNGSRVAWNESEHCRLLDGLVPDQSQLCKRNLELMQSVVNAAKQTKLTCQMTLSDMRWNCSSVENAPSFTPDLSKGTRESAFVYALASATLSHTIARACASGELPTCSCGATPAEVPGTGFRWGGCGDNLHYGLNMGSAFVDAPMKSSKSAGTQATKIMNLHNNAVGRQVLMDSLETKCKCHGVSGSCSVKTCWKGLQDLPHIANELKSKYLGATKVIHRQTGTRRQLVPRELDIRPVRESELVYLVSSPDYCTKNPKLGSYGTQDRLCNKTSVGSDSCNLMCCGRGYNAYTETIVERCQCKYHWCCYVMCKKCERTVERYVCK

Xwnt8-Myc (Xenopus) = target: T2, Xwnt8-Myc (Xenopus) (UniProt P28026)
T2 sequence: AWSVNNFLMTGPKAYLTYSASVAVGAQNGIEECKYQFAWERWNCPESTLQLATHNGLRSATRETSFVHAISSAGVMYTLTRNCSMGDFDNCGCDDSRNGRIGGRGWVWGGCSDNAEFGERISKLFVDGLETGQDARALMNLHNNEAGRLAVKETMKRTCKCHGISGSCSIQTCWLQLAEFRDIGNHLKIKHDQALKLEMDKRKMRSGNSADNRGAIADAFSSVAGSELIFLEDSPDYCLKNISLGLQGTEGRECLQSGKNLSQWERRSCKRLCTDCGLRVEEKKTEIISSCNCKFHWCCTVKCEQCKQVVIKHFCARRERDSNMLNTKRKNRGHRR

- binding (mouse Wnt3a (mouse)): binds
- binding (Xwnt11 (Xenopus)): binds
- binding (Xwnt8-Myc (Xenopus)): binds
B1: TIKI2N-FLAG-6xHIS (enzyme, not shown: small tags and cut ends)
chain: RPQPPDGGQCRPPGSQRDLNSFLWTIRRDPPAYLFGTIHVPYTRVWDFIPDNSKAAFQASTRVYFELDLTDPYTISALASCQLLPHGENLQDVLPHELYWRLKRHLDYVKLMMPSWMTPAQRGKGLYADYLFNAIAGNWERKRPVWVMLMVNSLTERDVRFRGVPVLDLYLAQQAEKMKKTTGAVEQVEEQCHPLNNGLNFSQVLFALNQTLLQQESVRAGSLQASYTTEDLIKHYNCGDLSAVIFNHDTSQLPNFINTTLPPHEQVTAQEIDSYFRQELIYKRNERMGKRVMALLRENEDKICFFAFGAGHFLGNNTVIDILRQAGLEVDHTPAGQAIHSPAPQSPAPSPEGTSTSPAPVTPAAAVPEAPSVTPTAPPEDEDPALSPHLLLPDSLSQLEEFGRQRKWHKRQSTHQRPRQFNDLWVRIEDSTTASPPPLPLQPTHSSGTAKPPFQLSDQLQQQDPPG
